Test results as given in PubChem BioAssay AID504834 (National Center for Advancing Translational Sciences (NCATS), 2011).
Hit rate of the full screen: of about 320,000 compounds, about 22,000 (6.9%) were called active. The shares of active, inactive and inconclusive entries below differ from those in the screen. Calls come from the whole dose curve; as a rule, active = well fitted inhibition curve with a large enough effect; inconclusive = small, poorly fitted or top-dose-only effect, or another doubt; inactive = no such curve, though single readings can be large or run the other way. Where the call is inconclusive, the potency comes from a doubtful curve fit.

Assay: Primary qHTS for delayed death inhibitors of the malarial parasite plastid, 96 hour incubation
Settings: P. falciparum luciferase reporter growth; series mostly up to 28.7 µM; activity change, negative = inhibition: at the top concentration
In short: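 Readout is luminescence from an integrated firefly luciferase in P. falciparum. Red cells, 2% hematocrit and 0.05% parasitemia final, were cultured with compound through two parasite generations (96 hours) at 37 C, 5% CO2.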
% is set by controls: 0 for no effect and ±100 for the full control effect; potency is the fitted concentration of half-maximal effect.

SMILES | Potency | activity change, negative = inhibition
COc1ccc2oc(C(=O)N3CCN(C(=O)c4ccco4)CC3)c(C)c2c1 | inconclusive: 18.5 µM [inhibitor, single point] | 
CCOc1ccccc1NS(=O)(=O)c1ccc2c(c1)NC(=O)CCS2 | inconclusive: 2.94 µM [inhibitor, full curve] | 
Cc1ccc(-c2nnn(Cc3nc(N)nc(N4CCOCC4)n3)n2)cc1 | inconclusive: 14.7 µM [inhibitor, single point] | 
Cc1ccc(S(=O)(=O)Nc2ccc(N(C)C)cc2)cc1 |  | inactive: 24.7%
COc1ccccc1N1CCN(C(=O)C2CCCN(S(=O)(=O)c3ccc(C)cc3)C2)CC1 (centres undefined) | inconclusive: 18.5 µM [inhibitor, single point] | 
Cc1ccc(C2C(C#N)=C(N)OC3=C2C(=O)CC(C)(C)C3)s1 (centres undefined) |  | inactive: 42.5%
CS(=O)(=O)N(CC(=O)Nc1ccc(S(=O)(=O)N2CCOCC2)cc1)c1ccccc1Br | inconclusive: 18.5 µM [inhibitor, single point] | 
CS(=O)(=O)c1nc(S(=O)(=O)c2ccc(Cl)cc2)c(N2CCCCCC2)s1 | active: 13.1 µM | 
CCCCC(=O)N/N=C/c1cc([N+](=O)[O-])ccc1N1CCOCC1 | inconclusive: 0.657 µM [inhibitor, partial curve, poor fit] | 
c1ccc(C2CC(c3cccs3)=NN2c2ccccc2)cc1 (centres undefined) | active: 10.4 µM | 
COCCNC(=O)C(c1ccccc1F)N(C(=O)C(=O)NC1CCCC1)C1CCCCC1 (centres undefined) | active: 11.7 µM | 
COC(=O)CCC(=O)OC1(C)C(=O)C=C2C=C(C3CC3)N(CCc3c[nH]c4ccccc34)C=C2C1=O (centres undefined) | inconclusive: 18.5 µM [inhibitor, single point] | 
CC(C)C[C@H](NC(=O)c1nc[nH]c1C(=O)NC1CCNCC1)C(=O)OC(C)(C)C | inconclusive: 18.5 µM [inhibitor, single point] | 
O=S(=O)([O-])CCC[n+]1ccc(Oc2ccccc2)cc1 | inconclusive: 18.5 µM [inhibitor, single point] | 
CCN(CC(=O)Nc1ccc(OC)cc1)C(=O)c1cc(S(=O)(=O)N2CCOCC2)ccc1N1CCCC1 | inconclusive: 18.5 µM [inhibitor, single point] | 
O=C(Nc1cc(S(=O)(=O)N2CCOCC2)ccc1-n1cncn1)c1ccc(Cl)cc1 | inconclusive: 14.7 µM [inhibitor, single point] | 
Cc1ccc(-n2c3nc(=O)[nH]c(=O)c-3cc3c(C)nn(-c4ccccc4)c32)c(C)c1 | inconclusive: 8.28 µM [inhibitor, partial curve, poor fit] | 
CC(=O)Nc1ccc(N2CCCC(C)C2)c([N+](=O)[O-])c1 (centres undefined) |  | inactive: -1.4%
COc1ccc(N(CC(=O)NCc2ccc(Cl)cc2)S(=O)(=O)c2c(C)noc2C)cc1 | active: 8.28 µM | 
CC1(C)CN(c2ccccc2)N(Cc2ccc(F)cc2)C1=O |  | inactive: -2.57%
Cn1nc(C(=O)Nc2nc(-c3ccccn3)cs2)c2ccccc2c1=O | active: 3.29 µM | 
CN(C)CCn1c(=O)n(Cc2ccccc2)c(=O)c2c3c(sc21)CCCCC3 | inconclusive: 14.7 µM [inhibitor, single point] | 
COc1cc(NC(=S)NCCO)c(OC)cc1Cl |  | inactive: -9.73%

3 records picked at random from those above:
SMILES | Potency | activity change, negative = inhibition
O=S(=O)([O-])CCC[n+]1ccc(Oc2ccccc2)cc1 | inconclusive: 18.5 µM [inhibitor, single point] | 
COC(=O)CCC(=O)OC1(C)C(=O)C=C2C=C(C3CC3)N(CCc3c[nH]c4ccccc34)C=C2C1=O (centres undefined) | inconclusive: 18.5 µM [inhibitor, single point] | 
CC1(C)CN(c2ccccc2)N(Cc2ccc(F)cc2)C1=O |  | inactive: -2.57%

(continued)

SMILES | Potency | activity change, negative = inhibition
CC(C)OC(=O)c1cc(C(=O)c2cc(F)ccc2O)coc1=N | inconclusive: 16.5 µM [inhibitor, single point] | 
Clc1ccc(Cn2c(-c3cccnc3Cl)nc3ccccc32)cc1 | inconclusive: 0.828 µM [inhibitor, partial curve, poor fit] | 
S=C(NCCc1ccc(Cl)cc1)NC1CC1 | inconclusive: 11.7 µM [inhibitor, partial curve, poor fit] | 
Cc1ccc(C(=O)CNc2ccc(C)cc2C)cc1 | inconclusive: 11.7 µM [inhibitor, single point] | 
Cc1ccc(NC(=O)c2cc(S(=O)(=O)N3CCOCC3)cn2C)cc1F | inconclusive: 10.4 µM [inhibitor, single point] | 
Cc1cc(C)c(C#N)c(SCCN2CCCCC2)n1 |  | inactive: -11.2%
CCOC(=O)c1ccc(NC(=S)NCCCN2CCCC2=O)cc1 | active: 2.62 µM | 
CCOCCCN(C)C1CCN(C(=O)c2oc3ccccc3c2NC(=O)COc2cccc(C)c2)CC1 | active: 13.1 µM | 
Cc1ccccc1C(=O)Nc1ccnn1C1CCN(C(C)Cc2ccccc2F)CC1 (centres undefined) | inconclusive: 10.4 µM [inhibitor, single point] | 
CCn1c(C)c(C(=O)O)c2cc(OC)ccc21 | inconclusive: 3.7 µM [inhibitor, partial curve] | 
CCOc1ccc(CCNC(=O)c2cc(S(=O)(=O)N3CCOCC3)ccc2C)cc1OCC | inconclusive: 14.7 µM [inhibitor, partial curve, poor fit] | 
O=S(=O)(c1ccccc1)N(CC(O)CN1CCCCC1)c1ccccc1 (centres undefined) | inconclusive: 16.5 µM [inhibitor, partial curve, poor fit] | 
CCN(CC)S(=O)(=O)c1cccc(-c2nc3n(n2)Cc2ccccc2-3)c1 |  | inactive: 11.1%
Cc1ccccc1C(=O)N/N=C/c1ccc(Sc2ccccn2)o1 | inconclusive: 3.29 µM [inhibitor, single point] | 
CC(=O)Nc1sc(NC(=O)c2ccc([N+](=O)[O-])cc2)nc1-c1cccs1 | inconclusive: 18.5 µM [inhibitor, single point] | 
CC(C(=O)NCc1ccc(Cl)cc1)n1cccc1C(=O)c1ccccc1 (centres undefined) | inconclusive: 0.262 µM [inhibitor, full curve, poor fit] | 
CC(C)C[C@H]1CN=C(Nc2ccccc2)N1CC1CCCC1 | inconclusive: 18.5 µM [inhibitor, single point] | 
COc1ccc(CCNC(=O)C2CCC(C(C)(C)C)CC2)cc1OC (centres undefined) | inconclusive: 4.65 µM [inhibitor, partial curve] | 
CCOC(=O)c1sc2nc(C3CC3)cc(-c3ccc(OC)cc3)c2c1N | inconclusive: 11.7 µM [inhibitor, partial curve, poor fit] | 
Cc1ccc(C(=O)Nc2cccc(C(F)(F)F)c2)cc1Nc1ncnc2nc[nH]c12 | active: 13.1 µM | 
Cc1c(C(=O)Nc2ccc(Cl)cc2)c2ccccn2c1C(=O)c1ccc(F)cc1 | inconclusive: 11.7 µM [inhibitor, single point] | 
COc1ccccc1C(=O)NC(CCSC)C(=O)N1CCN(C(C)=O)CC1 (centres undefined) |  | inactive: 31.3%
Cc1ccc(NC(=O)COC(=O)C2(c3ccc(Cl)cc3)CCCC2)cc1 | inconclusive: 9.28 µM [inhibitor, single point] | 

SMILES | Potency | activity change, negative = inhibition
Cc1ccccc1N(CC(=O)NCCSC1CCCCC1)S(=O)(=O)c1ccccc1 | inconclusive: 9.28 µM [inhibitor, partial curve] | 
O=C(NNC(=S)Nc1ccccc1C(F)(F)F)c1ccc(Br)o1 |  | inactive: 82.2%
Nc1ccccc1SCC(=O)Nc1cccc2ccccc12 | inconclusive: 18.5 µM [inhibitor, single point] | 
CCCCCOC(=O)C1[C@H]2C(=O)N(CCCOC)C[C@]23C=C[C@H]1O3 (some centres undefined) | inconclusive: 18.5 µM [inhibitor, single point] | 
CC(C)Oc1cccc(C2NC(=O)c3ccccc3O2)c1 (centres undefined) | inconclusive: 18.5 µM [inhibitor, single point] | 
CC(C)(C)c1ccc(NC(=O)Nc2ccc(F)cc2)cc1 |  | inactive: -30%
CC(C(=O)N(C)C1CCS(=O)(=O)C1)N1C(=O)/C(=C/c2ccco2)SC1=S (centres undefined) | inconclusive: 18.5 µM [inhibitor, single point] | 
CC(=O)c1cccc(NC(=O)C(C)OC(=O)c2ccc(Br)o2)c1 (centres undefined) |  | inactive: -13.7%
CN1CCN(c2ccccc2NC(=O)c2ccccc2F)CC1 | inconclusive: 18.5 µM [inhibitor, single point] | 
O=c1n(Cc2ccccc2Cl)nc2n1-c1ccccc1SC2 |  | inactive: 49.9%
O=C(CN1CCCCCC1)Nc1ccccc1F |  | inactive: -15.8%
Cc1ccc(OCC(=O)NCCCNC(=O)c2ccccn2)cc1C |  | inactive: 220%
CN(c1ccc(OCC(=O)NCCc2ccccc2)cc1)S(=O)(=O)c1ccc(Cl)cc1 | inconclusive: 10.4 µM [inhibitor, single point] | 
COc1ccccc1CCc1nnc(CCC(=O)NCC[C@@H]2C[C@@H]3C=C[C@H]2C3)o1 |  | inactive: 2.38%
CCOC(=O)C1=C(N)OC2=C(C(=O)CC(C)(C)C2)C1c1ccoc1 (centres undefined) | inconclusive: 10.4 µM [inhibitor, single point] | 
Cc1n[nH]c(=S)n(/N=C/c2ccccn2)c1=O | inconclusive: 18.5 µM [inhibitor, single point] | 
COC(=O)c1cccc(C23CC4(C2)[C@H](CN(Cc2ccc(C(F)(F)F)cc2)[C@@H]4c2ccccc2)C3c2ccc(Cl)nc2)c1 (some centres undefined) | inconclusive: 10.4 µM [inhibitor, single point] | 
CCc1ccc(C(=O)CSc2n[nH]c(-c3ccncc3)n2)cc1 | active: 5.22 µM | 
CC1(C)CC(NS(=O)(=O)c2ccc3ccccc3c2)CC(C)(C)N1 | inconclusive: 0.147 µM [inhibitor, full curve, poor fit] | 
COc1ccc(-c2noc(C3CCCN(S(=O)(=O)c4ccc(C)c(Cl)c4)C3)n2)cc1OC (centres undefined) | inconclusive: 18.5 µM [inhibitor, partial curve, poor fit] | 
O=C1OC(c2ccc(Cl)cc2)=C/C1=C/c1cccnc1 | inconclusive: 2.08 µM [inhibitor, full curve] | 
COc1cc(-n2c(=O)c3ccccc3n(Cc3ccccc3)c2=O)cc(OC)c1OC |  | inactive: 48.5%
CN(CC(=O)Nc1ccccc1C(=O)N1CCCC1)S(=O)(=O)c1ccc(Br)cc1 | inconclusive: 9.28 µM [inhibitor, single point] | 
